Results on one molecule are retold here after patent US20170355771A1 (Biogen, published 2017).

Chains of the proteins cited; added tags and fusions are not shown. Lines headed by an entry give the natural chain unless they say otherwise; changes in a name come on top.
UniProt P08514: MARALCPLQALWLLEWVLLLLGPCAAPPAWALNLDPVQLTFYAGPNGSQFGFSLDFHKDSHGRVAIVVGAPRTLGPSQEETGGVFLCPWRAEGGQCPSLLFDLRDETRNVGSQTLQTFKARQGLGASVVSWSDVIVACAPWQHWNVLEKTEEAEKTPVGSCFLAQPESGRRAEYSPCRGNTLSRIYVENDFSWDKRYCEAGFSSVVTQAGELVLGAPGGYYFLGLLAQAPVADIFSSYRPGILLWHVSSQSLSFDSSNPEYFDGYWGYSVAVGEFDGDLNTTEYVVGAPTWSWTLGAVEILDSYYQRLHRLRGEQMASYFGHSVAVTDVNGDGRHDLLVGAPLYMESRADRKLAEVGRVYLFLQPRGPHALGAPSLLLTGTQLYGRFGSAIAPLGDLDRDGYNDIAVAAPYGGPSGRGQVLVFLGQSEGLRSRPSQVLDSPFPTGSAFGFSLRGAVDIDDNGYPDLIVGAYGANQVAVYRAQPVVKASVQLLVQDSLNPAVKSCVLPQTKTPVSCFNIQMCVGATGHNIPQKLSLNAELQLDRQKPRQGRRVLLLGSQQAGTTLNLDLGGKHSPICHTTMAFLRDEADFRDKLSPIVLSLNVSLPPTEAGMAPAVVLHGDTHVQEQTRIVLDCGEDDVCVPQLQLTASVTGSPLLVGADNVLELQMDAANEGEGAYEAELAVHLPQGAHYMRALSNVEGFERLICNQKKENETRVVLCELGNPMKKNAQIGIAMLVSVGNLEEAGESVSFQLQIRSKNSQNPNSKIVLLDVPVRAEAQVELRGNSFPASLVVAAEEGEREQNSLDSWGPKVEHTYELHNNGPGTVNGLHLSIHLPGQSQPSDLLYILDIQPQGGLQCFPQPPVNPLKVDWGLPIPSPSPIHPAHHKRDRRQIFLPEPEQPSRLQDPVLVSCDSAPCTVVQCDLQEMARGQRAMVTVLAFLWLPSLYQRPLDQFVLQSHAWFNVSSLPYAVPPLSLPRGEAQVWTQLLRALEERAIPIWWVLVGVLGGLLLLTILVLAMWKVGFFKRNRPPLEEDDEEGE

No constants are given. Whether binding was seen depends on the method and setting. Some binding calls cover weakened binding; strength is not graded here.

The target of the experiment is α subunit of GPIIb/IIIa (GPIIb) (human) (UniProt P08514). Briefly: characterization of hybridoma supernatant (subunit specificity assay).

B1: murine anti-GPIIb/IIIa antibody 34D10 (antibody, V domains shown)
VH: EVKLVESGGGLVKPGGSLKLSCAASGFTFSAYAMSWVRQTPEKRLEWVASISSGGTTYYPDSVKRRFTISRDNARNILYLQMSSLRSEDTAMYYCTRGGDYGYALDYWGQGTSVTVSS
VL: ENVLTQSPAIMSASLGEKVTMSCRASSSVNYMYWYQQKSDASPKLWIYYTSNLAPGVPARFSGSGSGNSYSLTISSMEGEDAATYYCQQFSSSPWTFGGGTKLEIK
As to B1, the binding result was “binds”.
